PubChem BioAssay AID2685 (National Center for Advancing Translational Sciences (NCATS), 2010)
Hit rate of the full screen: of about 320,000 compounds, about 2,100 (0.66%) were called active. The shares of active, inactive and inconclusive entries below differ from those in the screen. The call rests on the fitted dose curve; in most records, active means well fitted inhibition curve with a large enough effect in the signal ratio, with a control signal flat (not every such curve was filed as active); inconclusive means small, poorly fitted or top-dose-only effect, or effect the other way, or a change in a side signal; inactive means flat fitted curve, though single readings scatter; the % refers to the signal ratio. A potency beside an inconclusive call is a rough fit, not a confirmed value.

assay: qHTS Assay for Lipid Storage Modulators in Drosophila S3 Cells; settings: BODIPY lipid droplet fluorescence, 18-24 h, cells fed with added oleic acid; lipid storage change, negative = inhibition: at 46.1 µM (top of the series) unless noted
Summary of the method: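 Drosophila S3 cells loaded with oleic acid (400 uM, as added) and compounds at several concentrations; lipid droplets imaged by 488-nm laser-scanning cytometry, 500–530 nm intensity and object ratio to cell channel. Percent activity normalized to 20 uM Triacsin C.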
On the % scale 0 is the no-effect control and ±100 the full control effect; potency means the concentration at half of the fitted maximal effect.

Structure (SMILES)	lipid storage change, negative = inhibition	Potency	outcome
CCC(C)NC(=O)Cn1nc(C(F)(F)F)c2c1CCC2 (centres undefined)	inconclusive: -9.89%	–	–
Cc1ccc(CNC(=O)c2cc3c(-c4ccc(Cl)cc4)nn(C)c3s2)o1	–	inconclusive: 18.4 µM [rising, single point]	–
C=CCN=C(NC#N)SCCc1ccccc1	–	inconclusive: 9.2 µM [activator, partial curve]	–
O=C(C1CCCN(S(=O)(=O)c2cnc[nH]2)C1)N1CCN(Cc2ccccc2)CC1 (centres undefined)	inconclusive: -40.7%	–	–
Cc1nn(CCCC(=O)NCc2ccc(F)cc2)c(C)c1[N+](=O)[O-]	–	inconclusive: 23.1 µM [falling, single point]	–
O=C(Cc1ccc(Br)cc1)Nc1cccc(Cl)c1	inconclusive: -11.9%	–	–
Nc1ncnc2c1ncn2CCc1ccccc1	inconclusive: 14.5%	–	–
Cc1ccc(NC(=O)/C(=C\c2ccccc2)NC(=O)c2ccco2)cc1	inconclusive: 45.6%	–	–
O=C(Cn1cnc2ccccc2c1=O)NNC(=O)c1cccc([N+](=O)[O-])c1	inconclusive: 18.2%	–	–
C=CCN(CC=C)S(=O)(=O)c1ccc(C(=O)Nc2nnc(CSC)o2)cc1	inconclusive: -1.67%	–	–
Cc1cc(C)nc(NC(=O)CCN2C(=O)c3ccccc3S2(=O)=O)n1	–	inconclusive: 1.3 µM [rising, partial curve]	–
CCCCn1c(CNC(=O)CCC)nc2ccccc21	inconclusive: 24.6%	–	–
CN1CCN(c2ccc(C(CC(N)=O)NC(=O)Cc3cccc4ccccc34)cc2[N+](=O)[O-])CC1 (centres undefined)	inconclusive: 4.07%	–	–
CCS(=O)(=O)N1Cc2ccccc2CC1C(=O)NCCc1c[nH]c2ccccc12 (centres undefined)	inconclusive: 204%	–	–
O=C(NCc1ccncc1)C(=O)NCC1OCCN1S(=O)(=O)c1ccc(Br)cc1 (centres undefined)	–	inconclusive: 0.13 µM [activator, full curve, poor fit]	–
COc1ccc(C2=NCCc3cc(OC)c(OC)cc32)cc1	–	inconclusive: 14.6 µM [rising, single point]	–
O=C(Nc1cccc(-c2cscn2)c1)C1CCN(Cc2ccsc2)CC1	inconclusive: 9.74%	–	–
Cc1ccc2[nH]c(=O)c3cc(C(=O)N(CCCOC(C)C)Cc4ccco4)sc3c2c1	–	inconclusive: 14.6 µM [cytotoxic, partial curve]	–
O=C(O)Cn1c(=O)n(Cc2ccccc2)c2ccccc21	–	inconclusive: 29.1 µM [activator, single point]	–
CS(=O)(=O)N1CCCC(C(=O)Nc2ccc(F)cc2)C1 (centres undefined)	–	inconclusive: 29.1 µM [activator, single point]	–
CCN1C(=S)N[C@@H](c2ccccc2)C(C(=O)OC)=C1C	–	inconclusive: 5.17 µM [activator, partial curve, poor fit]	–
CCC(c1nnnn1C1CCCC1)N(Cc1cccs1)Cc1cc2cc(C)ccc2[nH]c1=O (centres undefined)	inconclusive: 112%	–	–
Cc1cc2nc(CCN(Cc3cccnc3)C(=S)Nc3ccccc3)[nH]c2cc1C	–	inconclusive: 0.731 µM [rising, partial curve]	–
O=C(NC(=S)NCCc1ccccn1)c1ccccc1	inconclusive: -8.38%	–	–
COc1ccccc1CN(C)S(=O)(=O)c1cccs1	inconclusive: 11.1%	–	–

Sorted by heavy-atom count (smallest number first): three of the compounds above.
Structure (SMILES)	lipid storage change, negative = inhibition	Potency	outcome
COc1ccccc1CN(C)S(=O)(=O)c1cccs1	inconclusive: 11.1%	–	–
CCS(=O)(=O)N1Cc2ccccc2CC1C(=O)NCCc1c[nH]c2ccccc12 (centres undefined)	inconclusive: 204%	–	–
CN1CCN(c2ccc(C(CC(N)=O)NC(=O)Cc3cccc4ccccc34)cc2[N+](=O)[O-])CC1 (centres undefined)	inconclusive: 4.07%	–	–

Continued.

Structure (SMILES)	lipid storage change, negative = inhibition	Potency	outcome
CSc1ccc(CNC(=O)c2ccc(NC(=O)C3=CSCCO3)cc2)cc1	–	inconclusive: 25.9 µM [activator, single point]	–
COc1cccc(/C(O)=C2/C(=O)C(=O)N(c3cc(C)on3)C2c2cccs2)c1 (centres undefined)	inconclusive: -1.39%	–	–
O=C(NCCc1ccccn1)c1cc2ccccc2o1	inconclusive: 9.2%	–	–
Cc1nn(C(C)C(=O)N/N=C/c2ccc(N(C)C)cc2)c(C)c1[N+](=O)[O-] (centres undefined)	inconclusive: 11.8%	–	–
O=C(Nc1ccc2ccccc2c1)c1cccc(F)c1	inconclusive: -37.8%	–	–
CC1(C)C(=O)N(c2ccccc2)C1c1ccccc1O (centres undefined)	inconclusive: -20.3%	–	–
Cc1nc(-c2cccc(NC(=O)c3cc4cc(Br)ccc4oc3=O)c2)cs1	–	inconclusive: 29.1 µM [falling, single point]	–
COc1ccccc1S(=O)(=O)Cc1ccc(C(=O)NCC(OC)OC)o1	inconclusive: 7.03%	–	–
COc1ccc(CCNC(=O)CSC2=NS(=O)(=O)c3cc(Cl)ccc3N2)cc1OC	inconclusive	–	–
CC(C)CN(Cc1c(O)ccc2c(=O)c(-c3ccccc3)coc12)CC(C)C	inconclusive: 43.9%	–	–
CCc1ccc(N2CC(C(=O)Nc3ccc(S(=O)(=O)N4CCOCC4)cc3)CC2=O)cc1 (centres undefined)	inconclusive: 41.4%	–	–
O=C(CSc1ccc(-c2cccnc2)nn1)Nc1ccccc1F	–	inconclusive: 5.62 µM [activator, single point]	–
CSc1nc2ccc(NC(=O)C3=NN(c4ccccc4)C(=O)CC3)cc2s1	inconclusive: 30.9%	–	–
COc1ccc(CN2CCNC(=O)C2CC(=O)N(C)Cc2nonc2C)c(F)c1 (centres undefined)	–	inconclusive: 6.51 µM [activator, single point]	–
CN1CCN(S(=O)(=O)c2cccc(C(=O)Nc3sc4c(c3C(N)=O)CCCC4)c2)CC1	inconclusive: -5.52%	–	–
COC(=O)c1c(-c2cccs2)csc1NC(=O)c1cccnc1	inconclusive: 14.6%	–	–
CCN(CC)CCOC(=O)c1ccc(N/C=C(/C#N)c2nc(-c3cccc(OC)c3)cs2)cc1	–	inconclusive: 23.1 µM [falling, partial curve, poor fit]	–
CC1=C(C(=O)OC2CCCC(C)C2)C(c2ccccc2)NC(=O)N1 (centres undefined)	inconclusive: -28.3%	–	–
COc1ccc(C(=O)N/N=C/C(=O)c2ccccc2)cc1	inconclusive: -100%	–	–
N#CC1(c2ccccc2)CCN(S(=O)(=O)c2ccc(OC(F)(F)F)cc2)CC1	–	inconclusive: 0.103 µM [falling, full curve, poor fit]	–
CCOC(=O)C1CCN(c2cc3c(cc2NC(=O)c2cc(OC)ccc2Br)n(C)c(=O)n3C)CC1	–	inconclusive: 0.731 µM [activator, single point]	–
COC(=O)c1ccc(CON2C(=O)c3ccccc3C2=O)cc1	inactive: -5.5%	–	–
Cc1c(C)c2ccc(OC(C)C(=O)NCCCN3CCOCC3)c(C)c2oc1=O (centres undefined)	–	inconclusive: 29.1 µM [activator, partial curve, poor fit]	–
Cc1cc(Nc2ccc3c(c2)OCCO3)c2ccccc2n1	inconclusive: 21.5%	–	–
CCCc1nc2ccccc2c2nc(N)nn12	–	inconclusive: 2.59 µM [activator, partial curve, poor fit]	–

Structure (SMILES)	lipid storage change, negative = inhibition	Potency	outcome
COCCN(C(=S)Nc1ccccc1OC)C(C)c1cccs1 (centres undefined)	inactive: 18.6%	–	–
N#CCCN(C(=O)CSc1ccc2c(c1)OCCO2)c1ccc(F)cc1	inconclusive: -0.12%	–	–
O=C(O)CN1C(=O)c2ccc(Oc3cccc4c3C(=O)N(CC(=O)O)C4=O)cc2C1=O	inconclusive: -17.9%	–	–
CCN(CC)CCCN(C(=O)c1ccco1)c1nc(-c2ccc(Cl)cc2)cs1	–	inconclusive: 20.6 µM [falling, single point]	–
COc1ccc(C(=O)COC(=O)c2nn(C)cc2Cl)cc1	–	inconclusive: 2.91 µM [activator, full curve]	–
CCC(=O)Nc1nc2nc(C)cc(=O)n2[nH]1	inconclusive: 5.09%	–	–
Cc1cccn2c(=O)c3cc(C(=O)NCCc4ccccc4)sc3nc12	–	–	inactive [at 46.1 µM]
CN(C)c1nc(NCc2ccccc2)nc(N/N=C/c2ccc(Cl)cc2Cl)n1	–	–	inactive [at 46.1 µM]
O=C(Nc1cccc(C(F)(F)F)c1)c1cccnc1NCCc1ccccc1	inconclusive: -71.2%	–	–
O=C(Cc1cn(Cc2cccc(Cl)c2)c2ccccc12)N1CCCC1	–	inconclusive: 9.2 µM [activator, partial curve, poor fit]	–
COCC1CCCCN1C(=O)c1ccc(OC2CCN(CCc3ccccc3)CC2)cc1 (centres undefined)	–	inconclusive: 1.16 µM [falling, full curve, poor fit]	–
O=C(c1cc(-c2ccc(Cl)cc2)on1)N1CCCCCC1	–	inconclusive: 6.51 µM [activator, single point]	–
CC(C)(C)N(Cc1cc2ccccc2[nH]c1=O)C(=O)c1cccc([N+](=O)[O-])c1	inconclusive: 12.9%	–	–
CC(C)[N+](C)(C)CC#CC(O)(c1ccccc1)c1ccccc1	–	inconclusive: 0.13 µM [falling, full curve, poor fit]	–
CCCCN(C)CCNC(=O)Cn1c(=O)sc2ccccc21	–	inconclusive: 0.116 µM [falling, full curve]	–
CN(C)CC(C)(C)CNS(=O)(=O)c1ccc(OC(F)(F)F)cc1	inconclusive: -26.4%	–	–
Cc1nn(CC(O)COc2ccc3c(c2)CCC3)c(C)c1Br (centres undefined)	–	inconclusive: 29.1 µM [cytotoxic, single point]	–
C[C@H]1[C@H](c2ccccc2)C[C@@H](C(=O)O)C1(C)C	inconclusive: 1.33%	–	–
CCCCn1c(N)c(N(Cc2ccccc2OC)C(=O)CC2OC(=O)c3ccccc32)c(=O)[nH]c1=O (centres undefined)	–	inconclusive: 9.2 µM [activator, partial curve]	–
Oc1ccc2ccccc2c1C=NCc1cn2ccsc2n1	inconclusive: -5.93%	–	–
Cc1cc(Br)cc2c(C(=O)NCC3CCCO3)cc(-c3cccs3)nc12 (centres undefined)	–	inconclusive: 0.517 µM [falling, partial curve, poor fit]	–
Cc1ccc(C(=O)Cc2cc3ccccc3oc2=O)c(C)c1	inconclusive: -53.6%	–	–
Cc1oc(-c2ccccc2F)nc1CSCC(=O)NCc1ccc2c(c1)OCO2	inconclusive: -14.6%	–	–
COc1cc(/C=N/Nc2ccc(Cl)nn2)cc(OC)c1O	–	inconclusive: 0.461 µM [activator, full curve, poor fit]	–
